Experimental data taken from patent US20190082696A1, “METHOD FOR CONTROLLING PESTS OF PLANTS” (BASF SE, priority 2016, published 2019).
Some entries share one result that the patent states for a list of compounds.

What was measured:
Assay type in all cases: in vivo
[1] = system: Diamond Back Moth (Plutella xylostella); experiment: B.1 Diamond back moth leaf-dip test on cabbage leaves; conditions: 300 ppm; 3rd instar larvae; 72 hours after treatment
[2] = system: green peach aphid (Myzus persicae); experiment: B.2 Green peach aphid systemic test, artificial diet in 96-well plates; conditions: 2500 ppm; adult aphids; 3 days
[3] = system: vetch aphid (Megoura viciae); experiment: B.3 Vetch aphid test on broad bean leaf disks; conditions: 2500 ppm; adult aphids; 5 days
[4] = system: tobacco budworm (Heliothis virescens); experiment: B.4 Tobacco budworm test, insect diet with eggs; conditions: 2500 ppm; egg and larval mortality; 5 days
[5] = system: boll weevil (Anthonomus grandis); experiment: B.5 Boll weevil test, insect diet with eggs; conditions: 2500 ppm; egg and larval mortality; 5 days
[6] = system: Mediterranean fruitfly (Ceratitis capitata); experiment: B.6 Mediterranean fruitfly test, insect diet with eggs; conditions: 2500 ppm; egg and larval mortality; 5 days
[7] = system: Orchid thrips (Dichromothrips corbetti); experiment: B.7 Orchid thrips floral-immersion test; conditions: 300 ppm; adult thrips; 72 hours after treatment
[8] = system: Rice Green Leafhopper (Nephotettix virescens); experiment: B.8 Rice green leafhopper test on sprayed rice seedlings; conditions: 300 ppm; adults; after 72 hours
[9] = system: Red Spider Mite (Tetranychus kanzawai); experiment: B.9 Red spider mite test on sprayed cowpea beans; conditions: 300 ppm; 72 hours after treatment
[10] = system: Southern Armyworm (Spodoptera eridania); experiment: B.10 Southern armyworm test on sprayed lima bean plants; conditions: 10 ppm; larvae; 4 days after treatment
[11] = system: Green Soldier Stink Bug (Nezara viridula); experiment: B.11 Green soldier stink bug test on soybean pods; conditions: 300 ppm; late 3rd instar; after 5 days
[12] = system: Neotropical Brown Stink Bug (Euschistus heros); experiment: B.12 Neotropical brown stink bug test on soybean pods; conditions: 100 ppm; adult stage; after 5 days
[13] = system: Brown Marmorated Stink Bug (Halyomorpha halys); experiment: B.13 Brown marmorated stink bug test on peanuts and soybean seeds; conditions: 100 ppm; adult stage; after 5 days

Measured: mortality in comparison with untreated controls

CCC(=O)N1CC2(C1)OCc1cc(C3=NOC(c4cc(Cl)c(F)c(Cl)c4)(C(F)(F)F)C3)ccc12 (stereo not shown) [Compound I-1]
at least 75%: all assays above

CC(=O)N1CC2(C1)OCc1cc(C3=NOC(c4cc(Cl)c(F)c(Cl)c4)(C(F)(F)F)C3)ccc12 (stereo not shown) [Compound I-3]
not listed: [6]
at least 75%: all other assays above

N#CC1(C(=O)N2CC3(C2)OCc2cc(C4=NOC(c5cc(Cl)c(F)c(Cl)c5)(C(F)(F)F)C4)ccc23)CC1 (stereo not shown) [Compound I-5]
not listed: [6]
at least 75%: all other assays above

CS(=O)(=O)CC(=O)N1CC2(C1)OCc1cc(C3=NOC(c4cc(Cl)c(F)c(Cl)c4)(C(F)(F)F)C3)ccc12 (stereo not shown) [Compound I-2]
not listed: [12]
at least 75%: all other assays above
